The record followed here is article PMC8257255, “Soluble Fas ligand drives autoantibody-induced arthritis by binding to DR5/TRAIL-R2” (eLife, 2021).

Chains of the proteins cited; added tags and fusions are not shown. Lines headed by an entry give the natural chain unless they say otherwise; changes in a name come on top. A line that says so, or that is headed by a name, gives the form on record, which may keep a tag or linker. Residues count along the entry.
UniProt P25445, residues 26-335: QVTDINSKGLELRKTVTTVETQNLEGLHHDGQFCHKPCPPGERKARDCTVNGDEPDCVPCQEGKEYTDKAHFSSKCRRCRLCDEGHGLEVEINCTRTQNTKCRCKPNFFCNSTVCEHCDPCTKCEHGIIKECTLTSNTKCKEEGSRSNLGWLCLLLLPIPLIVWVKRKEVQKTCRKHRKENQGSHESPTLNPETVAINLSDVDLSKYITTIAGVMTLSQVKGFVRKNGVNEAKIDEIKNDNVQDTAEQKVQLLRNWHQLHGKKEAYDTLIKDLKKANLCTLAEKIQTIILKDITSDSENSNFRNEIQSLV
UniProt O14763: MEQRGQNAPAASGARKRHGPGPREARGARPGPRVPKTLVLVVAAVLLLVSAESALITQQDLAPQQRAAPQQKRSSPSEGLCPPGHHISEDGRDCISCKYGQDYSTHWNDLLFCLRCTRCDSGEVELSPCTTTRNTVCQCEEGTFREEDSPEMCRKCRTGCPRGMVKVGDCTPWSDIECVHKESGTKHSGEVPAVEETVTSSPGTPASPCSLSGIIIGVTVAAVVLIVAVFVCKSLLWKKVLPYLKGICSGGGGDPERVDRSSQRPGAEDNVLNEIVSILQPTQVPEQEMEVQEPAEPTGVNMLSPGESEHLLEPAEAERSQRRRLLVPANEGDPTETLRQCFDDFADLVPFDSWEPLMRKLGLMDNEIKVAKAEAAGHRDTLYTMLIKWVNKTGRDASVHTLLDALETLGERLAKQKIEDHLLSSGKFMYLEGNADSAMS
DR5 endogenous in human fibroblast-like synovial cells (human (endogenous in hFLSCs)): residues 56-440 of O14763
human wild-type DR5 expressed on EL4 mouse T cells (O14763, form named): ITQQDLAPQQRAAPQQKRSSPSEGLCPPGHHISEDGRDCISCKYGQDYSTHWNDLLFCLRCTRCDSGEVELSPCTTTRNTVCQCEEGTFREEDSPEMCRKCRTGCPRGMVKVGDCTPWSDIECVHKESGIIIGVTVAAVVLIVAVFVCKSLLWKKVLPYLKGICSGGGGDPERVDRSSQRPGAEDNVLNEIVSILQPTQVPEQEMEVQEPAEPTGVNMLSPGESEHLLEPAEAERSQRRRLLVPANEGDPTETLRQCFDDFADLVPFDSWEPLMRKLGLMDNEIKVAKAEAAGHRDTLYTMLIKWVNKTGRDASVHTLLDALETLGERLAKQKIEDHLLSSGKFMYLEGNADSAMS
UniProt O00220, residues 24-468: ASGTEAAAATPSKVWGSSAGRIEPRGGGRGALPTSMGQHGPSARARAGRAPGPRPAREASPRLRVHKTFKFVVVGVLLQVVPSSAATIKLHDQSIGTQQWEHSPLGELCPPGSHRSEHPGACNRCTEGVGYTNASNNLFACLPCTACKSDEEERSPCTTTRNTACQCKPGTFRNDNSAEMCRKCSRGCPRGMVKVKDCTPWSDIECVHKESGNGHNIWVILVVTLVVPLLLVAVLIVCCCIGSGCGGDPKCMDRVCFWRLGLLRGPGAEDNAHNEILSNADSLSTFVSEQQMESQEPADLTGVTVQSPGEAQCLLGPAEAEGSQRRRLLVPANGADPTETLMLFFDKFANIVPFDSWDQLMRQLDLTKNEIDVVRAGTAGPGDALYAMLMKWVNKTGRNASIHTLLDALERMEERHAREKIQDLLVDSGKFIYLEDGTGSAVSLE
UniProt P48023: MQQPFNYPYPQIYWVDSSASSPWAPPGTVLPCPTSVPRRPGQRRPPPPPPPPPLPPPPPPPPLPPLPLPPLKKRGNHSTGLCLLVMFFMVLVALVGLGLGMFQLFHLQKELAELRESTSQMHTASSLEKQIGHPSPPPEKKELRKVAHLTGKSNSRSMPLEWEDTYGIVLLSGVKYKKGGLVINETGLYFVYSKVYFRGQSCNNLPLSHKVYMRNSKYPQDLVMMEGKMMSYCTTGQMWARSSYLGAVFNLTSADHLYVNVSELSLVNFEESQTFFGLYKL

These are yes or no findings as the source states them, for the method shown. For part of these data: In cells and extracts the contact can be indirect. Some binding calls cover weakened binding; strength is not graded here.

Assay [1] concerns the target human wild-type Fas expressed on EL4 mouse T cells (human) (UniProt P25445). Kind of assay: flow cytometry on cells; FasL–Fc on EL4 cells transfected with human FAS, wild-type TNFRSF10B or mutated TNFRSF10B; with or without preincubation with human sTRAIL or sFasL; only the binder purified. In general terms: A flow cytometer gives signals particle by particle.
Assay [2] deals with human wild-type DR5 expressed on EL4 mouse T cells (human) (UniProt O14763). Described as above.
Assay [3] addresses DR4 endogenous in human fibroblast-like synovial cells (human (endogenous in hFLSCs)) (UniProt O00220). Description: flow cytometry on cells; FasL–Fc on hFLSCs, detected with PE- or FITC-conjugated anti-human IgG Fc; with anti-Fas and/or anti-DR5 antibodies, siRNA knockdown of TNFRSF members, or preincubation with sTRAIL or sFasL; only the binder purified.
For assay [4], the target named is Fas endogenous in human fibroblast-like synovial cells (human (endogenous in hFLSCs)) (UniProt P25445). Described as above.
In assay [5] the target is DR5 endogenous in human fibroblast-like synovial cells (human (endogenous in hFLSCs)) (UniProt O14763). The description is as above.
For assay [6], the target named is human wild-type FasL expressed on EL4 mouse T cells (human) (UniProt P48023). Description: flow cytometry on cells; DR5–Fc on EL4 cells transfected with human wild-type or mutated FASLG; with or without recombinant hTRAIL, anti-DR5 or anti-FasL antibodies; only the binder purified.
The target in assay [7] is human wild-type DR5 expressed on EL4 mouse T cells (human) (UniProt O14763). Kind of assay: flow cytometry on cells; biotinylated FasL or TRAIL on EL4 cells transfected with human TNFRSF10B or FAS, streptavidin-PE; PBS with 1% FBS and 0.09% sodium azide, 30 min, 4°C; with or without preincubation with recombinant hTRAIL or antibodies; only the binder purified.
The target in assay [8] is Fas endogenous in human fibroblast-like synovial cells (human (endogenous in hFLSCs)) (UniProt P25445). Kind of assay: flow cytometry on cells; biotinylated FasL or TRAIL on hFLSCs: wild type, FAS and/or TNFRSF10B knockout, and double knockout cells re-expressing TNFRSF10B and/or FAS; streptavidin staining; only the binder purified.
Assay [9] concerns the target Fas re-expressed in FAS and TNFRSF10B double knockout hFLSCs (human) (UniProt P25445). Described as above.
For assay [10], the target named is DR5 endogenous in human fibroblast-like synovial cells (human (endogenous in hFLSCs)) (UniProt O14763). The description is as above.
For assay [11], the target named is DR5 re-expressed in FAS and TNFRSF10B double knockout hFLSCs (human) (UniProt O14763). Described as above.
For assay [12], the target named is DR5 endogenous in human fibroblast-like synovial cells (human (endogenous in hFLSCs)) (UniProt O14763). Kind of assay: co-IP; 10^6 hFLSCs incubated with 200 ng/mL His-tagged TNF-α, FasL or TRAIL for 30 min at 37°C, cross-linked with 5 mM BS3, lysed; immunoprecipitated with anti-DR5 or control IgG, immunoblotted; only the binder purified.
The target is the same in assay [13]. Kind of assay: co-IP; competition: hFLSCs preincubated with FasL and TRAIL, with an excess of TRAIL (4 μg/mL) or an excess of FasL (4 μg/mL), cross-linked with BS3; lysates immunoprecipitated with anti-DR5 or control IgG, immunoblotted; only the binder purified. Background: A western blot detects proteins with antibodies after separation by electrophoresis.

Turning to “recombinant human FasL–Fc fusion protein (from UniProt P48023 130-281)”, the binding result in assay [1] is “binds”; in assay [2], “binds”; in assay [3] it was “no binding”; in assay [4] it was “binds”; in assay [5] it was “binds”.
With “Recombinant Human TRAIL R2/TNFRSF10B Fc Chimera Protein (from UniProt O14763 56-210) (Fc fusion)”, the binding result in assay [6] is recorded as “binds”.
As to “biotinylated recombinant human Fas ligand (from UniProt P48023 130-281)”, the binding result in assay [7], in [8], in [9], in assay [10] and in assay [11] was “binds” throughout.
As for “recombinant human soluble Fas ligand (His-tagged) (from UniProt P48023 130-281)”, the binding entry in assay [12], in [1], in [2] and in [13] was “binds” throughout.
